# Experimental data: patent US20210145972A1, “NAN[…] A NUCLEIC ACID SCAFFOLD AND VIRUS-BINDING PEPTIDE MOIETIES” (FRAUNHOFER-GESELLSCHAFT ZUR FÖRDERUNG DER ANGEWANDTEN …, priority 2017, published 2021)
# Tests used:
# [1] = target: bromelain treated hemagglutinin (BHA) (influenza A virus); experiment: microscale thermophoresis
# [2] = target: bromelain treated hemagglutinin (BHA) (influenza A virus); experiment: microscale thermophoresis, BHA as ligand
binder,measurement,setting,value
"ARDFYDYDVFYYAMD (designed binder) [DNA-PeB3 nanostructure (three-branched DNA scaffold, structure N, with three PeB peptide moieties)]",binding,[1],binds
same,binding,[2],binds

# No constants are given. Whether binding was seen depends on the method and setting. A result given as binding can be weak or reduced; the word gives no strength.
